Primary screen of a compound library

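Whole-cell growth test on Mycobacterium tuberculosis, read after 3 days in glucose-containing 7H9 medium; the read-out is not stated. Concentration: 50 µM. The record gives no direction; compounds that gave an IC50 in retests scored well above the rest, so higher reads as more growth inhibition. Of about 69,000 compounds tested this way, about 760 (1.1%) reached 50% or more in at least one test.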

Results are given as percent effect. The controls that fix the scale are not given in the record; negative values are as filed. The compounds are a random part of those screened. Two or more numbers in one place are separate tests of the same structure; such repeats can differ widely.

{"structure": "c1cncc(-c2ccnn2CN2CCC3(CC2)OCCO3)c1", "Percent Effect": -31.05}
{"structure": "COc1cccc(CN2CCC3(CC2)CCN(c2ncccn2)C3)c1.O=C(O)C(F)(F)F.O=C(O)C(F)(F)F", "Percent Effect": "-12.53 and -3.584"}
{"structure": "CCOC(=O)COc1ccc(C(C)=O)c(O)c1", "Percent Effect": -7.971}
{"structure": "C/C=C(\\C)CN(CCN1CCOCC1)Cc1ccco1", "Percent Effect": "-6.116 and 4.673"}
{"structure": "Cc1ccc(-c2csc3c(=O)[nH]c(N4CCCC(C(=O)O)C4)nc23)cc1", "stereo": "centres unmarked", "Percent Effect": "-11.19 and -0.4585"}
{"structure": "c1ccc2sc(NCC3(N4CCOCC4)CCSC3)nc2c1", "stereo": "centres unmarked", "Percent Effect": "-0.4358 and 27.7"}
{"structure": "CC(C)c1nc(CSc2nnc(C3CC3)n2CC(N)=O)no1", "Percent Effect": -13.47}
{"structure": "O=C(O)C(F)(F)F.[H][C@@]12C[C@H](C(=O)N3CCCO3)CN(Cc3ccco3)[C@]1([H])CCO2", "Percent Effect": "-2.116 and 17.75"}
{"structure": "CCc1cc(NC(=O)N2CCC(Oc3cccnc3)C2)n(C)n1", "stereo": "centres unmarked", "Percent Effect": -2.245}
{"structure": "CCCNC(=O)Cn1nc(C(C)C)c2cnn(C(C)(C)C)c2c1=O", "Percent Effect": "7.509 and -3.086"}
{"structure": "Cc1cc(C(=O)N2CC(O)CO2)c2ccc(C)c(C)c2n1", "stereo": "centres unmarked", "Percent Effect": "2.758 and 4.902"}
{"structure": "Cc1cccc(CN2CCOCC3(CCN(C4CCOCC4)C3)C2)c1.O=C(O)C(F)(F)F.O=C(O)C(F)(F)F", "stereo": "centres unmarked", "Percent Effect": -19.27}
{"structure": "Cc1nc(-c2cc(Cl)cc3c2OC(CN)C3)c[nH]1", "stereo": "centres unmarked", "Percent Effect": "38.55 and 46.62"}
{"structure": "Cc1ccc(C2NC(=O)c3cc(C(C)C)sc3N2)cc1", "stereo": "centres unmarked", "Percent Effect": 30.14}
{"structure": "O=C(O)[C@@H]1CN(Cc2ccc(-c3cc[nH]n3)s2)C[C@H]1C1CC1", "Percent Effect": "30.78 and 55.92"}
{"structure": "CC(Oc1ccc(C(=O)NCCNS(C)(=O)=O)cn1)c1ccccc1", "stereo": "centres unmarked", "Percent Effect": "-4.391 and 7.395"}
{"structure": "Cc1nnc(NCCc2coc(-c3ccccc3)n2)c(C#N)c1C", "Percent Effect": 9.07}
{"structure": "O=C1NCC2(CCCN(C(=O)c3csc(-c4cccs4)n3)C2)O1", "stereo": "centres unmarked", "Percent Effect": "26.44 and -0.2976"}
{"structure": "Cc1nc(CN2CCCC(NCc3cccc4ccccc34)C2)no1", "stereo": "centres unmarked", "Percent Effect": -11.43}
{"structure": "CCNC(=O)NCc1ccc(CN2CCCC(C)C2)cc1", "stereo": "centres unmarked", "Percent Effect": "-1.554 and 4.924"}
{"structure": "COc1ncc(-c2ccc(NC(C)=O)cc2)c(OC)n1", "Percent Effect": "25.93 and 14.2"}
{"structure": "CC(O)(CNc1ccc(Cl)c(C#N)n1)c1ccccc1", "stereo": "centres unmarked", "Percent Effect": 58.3}
{"structure": "CC(Nc1ccc(Br)cc1)c1nc(C2CC2)no1", "stereo": "centres unmarked", "Percent Effect": 52.28}
{"structure": "Cc1nc(S(=O)(=O)N2CCCCc3ccccc32)cn1C", "Percent Effect": -5.503}
{"structure": "Cc1ccc(CN2CCCC3(COCCN(Cc4c[nH]nn4)C3)C2)s1.O=C(O)C(F)(F)F.O=C(O)C(F)(F)F", "stereo": "centres unmarked", "Percent Effect": "-2.32 and -74.53"}
{"structure": "CC(C)OCCS(=O)(=O)N1CCN(Cc2ccco2)CC1", "Percent Effect": "-2.888 and 4.456"}
{"structure": "O=C(Cc1ccccc1F)N1CCN(C(=O)c2cccc(F)c2)CC1", "Percent Effect": "-13.07 and -74.88"}
{"structure": "Cc1cn(-c2ccccc2)nc1NS(=O)(=O)c1cc(C(=O)O)cs1", "Percent Effect": "-24.59 and -10.01"}
{"structure": "[H][C@@]12CN(S(C)(=O)=O)C[C@]1(C(=O)N(C)C)CCC21CCN(C(C)=O)CC1", "Percent Effect": -16.89}
{"structure": "CNC(=O)C1CCC(NC(=O)N(C)Cc2c(C)noc2C)CC1", "stereo": "centres unmarked", "Percent Effect": -29.47}
{"structure": "CC(C)(C)n1ncc(NCc2ccccc2)c(Cl)c1=O", "Percent Effect": "14.08 and -25.44"}
{"structure": "O=C(CC1CCCCC1)N1CCN(C(=O)NCc2ccccn2)CC1", "Percent Effect": 16.86}
{"structure": "O=C(NC1CC1)C1=CC2(CCN(CC3CC3)CC2)c2ccccc21.O=C(O)C(F)(F)F", "Percent Effect": 7.407}
{"structure": "CS(=O)(=O)c1ccc(C(=O)NCc2nc3cc(F)ccc3[nH]2)cc1", "Percent Effect": 14.66}
{"structure": "Cc1ccc(CN(CC(=O)N2CCOC(C)C2)C2CC2)cc1", "stereo": "centres unmarked", "Percent Effect": 7.016}
{"structure": "COCCNC(=O)c1nc(NS(=O)(=O)c2ccccc2)sc1C", "Percent Effect": "-25.85 and -6.004"}
{"structure": "CCn1nc2c(cc1=O)CN(c1nc3ccccc3s1)CC2", "Percent Effect": -46.3}

The last 4 entries again:

structure,Percent Effect
CS(=O)(=O)c1ccc(C(=O)NCc2nc3cc(F)ccc3[nH]2)cc1,14.66
Cc1ccc(CN(CC(=O)N2CCOC(C)C2)C2CC2)cc1 (centres unmarked),7.016
COCCNC(=O)c1nc(NS(=O)(=O)c2ccccc2)sc1C,-25.85 and -6.004
CCn1nc2c(cc1=O)CN(c1nc3ccccc3s1)CC2,-46.3

The values are deposited in ChEMBL (CHEMBL3988442, “University of Dundee, Small-Polar-MMV Screening Library” (2021)).